NMR binding call data for 38 compounds are collected here from the supplement of paper PMC8426693.

Holding throughout (experiment): NMR binding call after quantification (hit when 2 of 3 NMR criteria are met) (binary (1 = binding, 0 = not binding)); higher = binding
Settings in all cases: RNA concentration 10 µM; fragment concentration 200 µM; 293 K

One experiment deals with SARS-CoV-2 5_SL8 RNA.
Experiment [1] relates to SARS-CoV-2 attenuator hairpin (att HP) RNA.
For experiment [2], the system named is SARS-CoV-2 frameshift pseudoknot (PK) RNA.
In another experiment the test system is SARS-CoV-2 5_SL7 RNA.

Some of the results follow.

For the compound `CC(C)Nc1cccnc1`, the NMR binding call (in the experiment with SARS-CoV-2 5_SL8 RNA; in experiment [1]; in experiment [2]) was 0 each time.

For the compound `CC(CO)N(C)c1ncc(Cl)cn1` (stereo not given), the NMR binding call (in the experiment on SARS-CoV-2 5_SL7 RNA; in experiment [1]; in experiment [2]) was 0 throughout.

Consider `O=C(Nc1ccc(O)cc1)c1ccc(Cl)cc1`, for which the NMR binding call (in the experiment with SARS-CoV-2 5_SL7 RNA; in experiment [1]; in experiment [2]) was 0 each time.

Consider `c1ccc(NCC2CCNC2)nc1` (stereo not given), for which the NMR binding call (with SARS-CoV-2 5_SL7 RNA; in experiment [2]) was 1 each time.

As to `CNC(=O)c1ccccc1NC(=O)c1ccco1`, the NMR binding call in the experiment with SARS-CoV-2 5_SL8 RNA is 1; in experiment [1], 0.

`N#Cc1ccc(Cn2cnc3ccccc32)cc1`: the NMR binding call (in the experiment on SARS-CoV-2 5_SL7 RNA; in experiment [2]) was 0 in each case.

Consider `Cc1ccc(-c2nc(N)sc2C)cc1C`, for which the NMR binding call (in the experiment on SARS-CoV-2 5_SL7 RNA; in experiment [1]; in experiment [2]) was 0 in each case.

In the case of `CC(=O)N(C)c1ccccc1C(=O)O`, the NMR binding call (in the experiment on SARS-CoV-2 5_SL7 RNA; in experiment [1]; in experiment [2]) was 0 in each case.

Take `CC(N)c1ccc(-c2cncnc2)cc1` (stereo not given): the NMR binding call (in the experiment on SARS-CoV-2 5_SL7 RNA; in experiment [1]; in experiment [2]) was 0 in each case.

On to `Cc1cc(C(=O)Nc2ccc3[nH]ccc3c2)no1`, for which the NMR binding call (in the experiment on SARS-CoV-2 5_SL7 RNA; in experiment [1]; in experiment [2]) was 0 in each case.

As to `CCCc1nnc(NC(=O)c2ccccn2)s1`, the NMR binding call (in the experiment with SARS-CoV-2 5_SL8 RNA; in experiment [1]; in experiment [2]) was 0 in each case.

Regarding `COC(=O)Nc1nc2c(C)cccc2s1`, the NMR binding call (in the experiment with SARS-CoV-2 5_SL8 RNA; in experiment [1]; in experiment [2]) was 0 each time.

As to `Cc1ccc(CNC(=O)C2CCC2)cn1`, the NMR binding call (in the experiment on SARS-CoV-2 5_SL7 RNA; in experiment [2]) was 0 throughout.

As to `COc1ccc(Nc2ncnc3[nH]cnc23)cc1`, the NMR binding call (in the experiment with SARS-CoV-2 5_SL7 RNA; in experiment [1]; in experiment [2]) was 0 each time.

For the compound `O=C(NCCc1ccncc1)NC1CCCCC1`, the NMR binding call (in the experiment with SARS-CoV-2 5_SL7 RNA; in experiment [2]) was 0 each time.

In the case of `CC(=O)c1ccc(NC(=O)CN2CCCC2)cc1`, the NMR binding call in the experiment with SARS-CoV-2 5_SL7 RNA stood at 1; in experiment [1] it was 0; in experiment [2], 1.

For the compound `O=C(Nc1ccon1)c1cccc(Cl)c1`, the NMR binding call (with SARS-CoV-2 5_SL7 RNA; in experiment [1]; in experiment [2]) was 0 throughout.

For the compound `Cc1cc(N2CCNCC2)nc(C)n1`, the NMR binding call (in the experiment on SARS-CoV-2 5_SL8 RNA; in experiment [1]; in experiment [2]) was 0 in each case.

For the compound `CN(C)c1ccncc1`, the NMR binding call (in the experiment on SARS-CoV-2 5_SL8 RNA; in experiment [1]) was 0 in each case.

With `CCS(=O)(=O)Nc1ccccc1F`, the NMR binding call (in the experiment with SARS-CoV-2 5_SL7 RNA; in experiment [1]; in experiment [2]) was 0 throughout.

Consider `N#Cc1ccc(NC(=O)c2cccs2)cc1`, for which the NMR binding call (in the experiment on SARS-CoV-2 5_SL7 RNA; in experiment [1]; in experiment [2]) was 0 in each case.

With `Cc1cc(C(=O)Nc2ccn(C)n2)on1`, the NMR binding call (with SARS-CoV-2 5_SL8 RNA; in experiment [1]; in experiment [2]) was 0 each time.

As to `Cc1nccc(N2CCC(N)CC2)n1`, the NMR binding call with SARS-CoV-2 5_SL7 RNA worked out at 0; in experiment [2] it was 1.

For the compound `COc1ccc2[nH]cc(CN(C)C)c2c1`, the NMR binding call with SARS-CoV-2 5_SL7 RNA worked out at 1; in experiment [1] it was 0; in experiment [2], 0.

On to `c1ccc2c(CN3CCCCCC3)c[nH]c2c1`, for which the NMR binding call (in the experiment with SARS-CoV-2 5_SL8 RNA; in experiment [1]; in experiment [2]) was 0 in each case.

`O=C(Nc1ccc2[nH]c(=O)[nH]c2c1)c1ccco1`: the NMR binding call (in the experiment on SARS-CoV-2 5_SL7 RNA; in experiment [1]; in experiment [2]) was 0 in each case.

On to `Oc1ccccc1CN1CCOCC1`, for which the NMR binding call (in the experiment on SARS-CoV-2 5_SL7 RNA; in experiment [1]; in experiment [2]) was 0 in each case.

In the case of `CC(CO)(CO)NC(=O)Nc1ccccc1`, the NMR binding call (with SARS-CoV-2 5_SL7 RNA; in experiment [1]; in experiment [2]) was 0 in each case.

As to `CCOc1ccc(C(=O)Nc2ccccc2)cc1`, the NMR binding call (in the experiment with SARS-CoV-2 5_SL7 RNA; in experiment [1]; in experiment [2]) was 0 throughout.

With `CC(C)(CO)NC(=O)Nc1ccc(Cl)cc1`, the NMR binding call (with SARS-CoV-2 5_SL7 RNA; in experiment [2]) was 0 throughout.

Turning to `O=C(NO)c1ccc2ccccc2n1`, the NMR binding call (with SARS-CoV-2 5_SL7 RNA; in experiment [1]; in experiment [2]) was 0 each time.

In the case of `CC(=O)Nc1ccncc1C`, the NMR binding call (with SARS-CoV-2 5_SL7 RNA; in experiment [2]) was 0 each time.

Take `c1cc(-c2noc(C3CCCCC3)n2)ccn1`: the NMR binding call (with SARS-CoV-2 5_SL8 RNA; in experiment [1]; in experiment [2]) was 0 throughout.

Consider `CCCC(=O)Nc1nnn(CC)n1`, for which the NMR binding call (in the experiment with SARS-CoV-2 5_SL7 RNA; in experiment [1]; in experiment [2]) was 0 throughout.

In the case of `c1cc(-c2ccc3c(c2)OCO3)n[nH]1`, the NMR binding call stood at 1 in the experiment with SARS-CoV-2 5_SL8 RNA, 0 in experiment [1] and 0 in experiment [2].

In the case of `CC(Oc1ccc(-c2ccccc2)cc1)C(=O)O` (stereo not given), the NMR binding call (in the experiment on SARS-CoV-2 5_SL7 RNA; in experiment [1]; in experiment [2]) was 0 throughout.

Turning to `CNCc1cnn(-c2ccccc2)c1`, the NMR binding call (in the experiment on SARS-CoV-2 5_SL7 RNA; in experiment [1]; in experiment [2]) was 0 each time.

For the compound `O=C(Nc1cccnc1)c1cnn2cccnc12`, the NMR binding call (with SARS-CoV-2 5_SL7 RNA; in experiment [1]; in experiment [2]) was 0 in each case.
